Data: patent WO2017153426A1 (dated 2017)
No constants are given. Whether binding was seen depends on the method and setting. Some binding calls cover weakened binding; strength is not graded here.

Amino acid sequences for entries named in this document (tags omitted). A change or cut given only in a name is not applied to a line headed by its entry.
UniProt Q969D9: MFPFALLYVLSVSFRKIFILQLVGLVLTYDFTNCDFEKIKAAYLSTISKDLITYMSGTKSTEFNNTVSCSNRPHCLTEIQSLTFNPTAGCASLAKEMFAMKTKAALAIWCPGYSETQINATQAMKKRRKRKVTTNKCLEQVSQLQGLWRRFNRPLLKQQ

Target: full length TSLP: his (human) (UniProt Q969D9)
Assay: ForteBio Octet BLI, TSLP:his on anti-his sensor tips, dAb at 500 or 1000 nM

B1: DOM30h-440-81/86 (other)
chain: DIQMTQSPSSLSASVGDRVTITCRASRPIRNWLDWYQQKPGKAPKLLIWGASHLQSGVPSRFSGSGSGTDFTLTISSLQPEDFATYYCVQIGEDPVTFGQGTKVEIK
binding: binds
